At least one compound was matched to its structure with a doubt left.
What was measured:
[1] = system: monocyte chemotactic protein (MCP-1); experiment: MCP-1 levels in the vascular wall, rapamycin delivered from a stent; assay type: in vivo
[2] = In vitro release of sirolimus and cilostazol from stent coating; assay type: physicochemical; conditions: single-layer configuration of FIG. 83
[3] = Drug concentration in liquid formulations (liquid chromatography, HPLC assay); assay type: physicochemical

CO[C@H]1C[C@@H]2CC[C@@H](C)[C@@](O)(O2)C(=O)C(=O)N2CCCC[C@H]2C(=O)O[C@H]([C@H](C)C[C@@H]2CC[C@@H](O)[C@H](OC)C2)CC(=O)[C@H](C)/C=C(\C)[C@@H](O)[C@@H](OC)C(=O)[C@H](C)C[C@H](C)/C=C/C=C/C=C/1C [rapamycin]
monocyte chemotactic protein (MCP-1) levels in the vascular wall [1]: highly effective in reducing | in vitro release from the coating [2]: ~35% | concentration of sirolimus achieved ([3]; ethanol two percent, water twenty-five percent, PEG 200 seventy-five percent): 4000 µg/mL | concentration in the final solution (HPLC assay) ([3]; ethanol, Vitamin E TPGS and water, ethanol less than two percent): 15000 µg/mL

— US8557272B2, “Device for local and/or regional delivery employing liquid formulations of therapeutic agents” (Cordis Corporation, priority 2004, dated 2013)
